These are yes or no findings as the source states them, for the method shown. In cells and extracts the contact can be indirect. Some entries that bind do so weakly or less than the wild type. Sequences can lack the tags named with a protein.

The target of this assay is T1, SPINDLY (SPY), FLAG-tagged (35S::FLAG:SPY) (Arabidopsis thaliana) (UniProt Q96301).
T1 sequence: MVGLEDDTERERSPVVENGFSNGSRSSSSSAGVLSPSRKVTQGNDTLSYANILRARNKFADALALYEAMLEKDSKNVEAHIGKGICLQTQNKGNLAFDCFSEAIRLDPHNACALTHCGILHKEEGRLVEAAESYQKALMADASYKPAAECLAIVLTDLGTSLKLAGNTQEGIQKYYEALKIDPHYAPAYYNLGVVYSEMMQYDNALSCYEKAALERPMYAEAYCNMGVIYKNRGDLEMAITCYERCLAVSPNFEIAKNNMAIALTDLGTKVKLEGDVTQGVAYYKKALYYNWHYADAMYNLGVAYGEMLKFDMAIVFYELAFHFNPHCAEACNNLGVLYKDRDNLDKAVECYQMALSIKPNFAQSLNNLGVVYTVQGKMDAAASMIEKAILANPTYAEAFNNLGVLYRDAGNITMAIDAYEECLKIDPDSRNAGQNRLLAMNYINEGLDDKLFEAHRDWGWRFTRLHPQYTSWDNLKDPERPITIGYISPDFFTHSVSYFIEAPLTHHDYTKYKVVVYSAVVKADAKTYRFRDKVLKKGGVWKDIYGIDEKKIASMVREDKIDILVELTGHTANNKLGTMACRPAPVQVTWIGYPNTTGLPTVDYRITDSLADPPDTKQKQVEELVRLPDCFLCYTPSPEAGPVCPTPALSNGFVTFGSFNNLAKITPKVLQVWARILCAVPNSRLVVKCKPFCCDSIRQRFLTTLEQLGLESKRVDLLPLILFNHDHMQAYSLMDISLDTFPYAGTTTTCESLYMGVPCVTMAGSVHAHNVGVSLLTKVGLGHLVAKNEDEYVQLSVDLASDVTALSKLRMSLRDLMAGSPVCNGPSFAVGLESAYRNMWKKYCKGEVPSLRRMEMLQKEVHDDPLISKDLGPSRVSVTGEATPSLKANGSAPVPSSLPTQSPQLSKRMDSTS
The assay is described as follows: co-IP.

B1: SQUAMOSA PROMOTER BINDING PROTEIN-LIKE 15 (SPL15), HA-tagged (protein, UniProt Q9M2Q6 1-354)
chain: MELLMCSGQAESGGSSSTESSSLSGGLRFGQKIYFEDGSGSRSKNRVNTVRKSSTTARCQVEGCRMDLSNVKAYYSRHKVCCIHSKSSKVIVSGLHQRFCQQCSRFHQLSEFDLEKRSCRRRLACHNERRRKPQPTTALFTSHYSRIAPSLYGNPNAAMIKSVLGDPTAWSTARSVMQRPGPWQINPVRETHPHMNVLSHGSSSFTTCPEMINNNSTDSSCALSLLSNSYPIHQQQLQTPTNTWRPSSGFDSMISFSDKVTMAQPPPISTHQPPISTHQQYLSQTWEVIAGEKSNSHYMSPVSQISEPADFQISNGTTMGGFELYLHQQVLKQYMEPENTRAYDSSPQHFNWSL
B1: the binding entry is “binds”.

Source of the values: paper doi:10.1101/618744.
